# Measured values from the supplement of paper PMC10849652.
# Chains of the proteins cited; added tags and fusions are not shown. Lines headed by an entry give the natural chain unless they say otherwise; changes in a name come on top.
# UniProt O14727: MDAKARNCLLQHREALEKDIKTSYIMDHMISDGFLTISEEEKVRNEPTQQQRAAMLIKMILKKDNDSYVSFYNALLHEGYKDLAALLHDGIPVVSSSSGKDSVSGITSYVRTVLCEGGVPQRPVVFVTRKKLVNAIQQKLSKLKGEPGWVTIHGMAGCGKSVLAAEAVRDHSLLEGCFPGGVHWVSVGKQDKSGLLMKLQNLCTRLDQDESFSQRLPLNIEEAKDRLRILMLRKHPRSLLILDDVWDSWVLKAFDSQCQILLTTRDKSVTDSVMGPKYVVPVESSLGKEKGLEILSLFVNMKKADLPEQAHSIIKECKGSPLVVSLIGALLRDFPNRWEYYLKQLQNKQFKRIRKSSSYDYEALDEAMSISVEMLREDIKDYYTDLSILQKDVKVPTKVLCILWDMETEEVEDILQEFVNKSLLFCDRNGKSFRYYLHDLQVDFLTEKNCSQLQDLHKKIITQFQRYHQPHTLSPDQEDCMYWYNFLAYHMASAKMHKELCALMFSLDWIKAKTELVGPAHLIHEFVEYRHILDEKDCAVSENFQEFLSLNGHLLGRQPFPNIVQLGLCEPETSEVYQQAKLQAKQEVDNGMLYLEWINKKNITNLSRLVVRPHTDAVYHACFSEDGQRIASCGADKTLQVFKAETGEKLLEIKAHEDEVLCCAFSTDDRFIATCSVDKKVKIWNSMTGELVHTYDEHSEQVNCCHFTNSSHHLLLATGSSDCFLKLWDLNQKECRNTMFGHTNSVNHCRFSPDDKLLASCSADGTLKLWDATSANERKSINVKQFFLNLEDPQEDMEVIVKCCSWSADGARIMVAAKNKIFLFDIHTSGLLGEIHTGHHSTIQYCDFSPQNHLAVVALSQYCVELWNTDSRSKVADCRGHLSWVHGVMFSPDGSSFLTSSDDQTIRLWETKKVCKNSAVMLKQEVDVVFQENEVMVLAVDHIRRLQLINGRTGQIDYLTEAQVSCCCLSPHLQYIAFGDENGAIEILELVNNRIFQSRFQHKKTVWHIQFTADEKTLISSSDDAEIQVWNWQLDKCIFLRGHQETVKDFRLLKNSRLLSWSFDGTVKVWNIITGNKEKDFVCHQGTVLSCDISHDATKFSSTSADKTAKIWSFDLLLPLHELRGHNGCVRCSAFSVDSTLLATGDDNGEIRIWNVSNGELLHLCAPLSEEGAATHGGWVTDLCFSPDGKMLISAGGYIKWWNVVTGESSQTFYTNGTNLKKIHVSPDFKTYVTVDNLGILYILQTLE
# UniProt Q9NQW6: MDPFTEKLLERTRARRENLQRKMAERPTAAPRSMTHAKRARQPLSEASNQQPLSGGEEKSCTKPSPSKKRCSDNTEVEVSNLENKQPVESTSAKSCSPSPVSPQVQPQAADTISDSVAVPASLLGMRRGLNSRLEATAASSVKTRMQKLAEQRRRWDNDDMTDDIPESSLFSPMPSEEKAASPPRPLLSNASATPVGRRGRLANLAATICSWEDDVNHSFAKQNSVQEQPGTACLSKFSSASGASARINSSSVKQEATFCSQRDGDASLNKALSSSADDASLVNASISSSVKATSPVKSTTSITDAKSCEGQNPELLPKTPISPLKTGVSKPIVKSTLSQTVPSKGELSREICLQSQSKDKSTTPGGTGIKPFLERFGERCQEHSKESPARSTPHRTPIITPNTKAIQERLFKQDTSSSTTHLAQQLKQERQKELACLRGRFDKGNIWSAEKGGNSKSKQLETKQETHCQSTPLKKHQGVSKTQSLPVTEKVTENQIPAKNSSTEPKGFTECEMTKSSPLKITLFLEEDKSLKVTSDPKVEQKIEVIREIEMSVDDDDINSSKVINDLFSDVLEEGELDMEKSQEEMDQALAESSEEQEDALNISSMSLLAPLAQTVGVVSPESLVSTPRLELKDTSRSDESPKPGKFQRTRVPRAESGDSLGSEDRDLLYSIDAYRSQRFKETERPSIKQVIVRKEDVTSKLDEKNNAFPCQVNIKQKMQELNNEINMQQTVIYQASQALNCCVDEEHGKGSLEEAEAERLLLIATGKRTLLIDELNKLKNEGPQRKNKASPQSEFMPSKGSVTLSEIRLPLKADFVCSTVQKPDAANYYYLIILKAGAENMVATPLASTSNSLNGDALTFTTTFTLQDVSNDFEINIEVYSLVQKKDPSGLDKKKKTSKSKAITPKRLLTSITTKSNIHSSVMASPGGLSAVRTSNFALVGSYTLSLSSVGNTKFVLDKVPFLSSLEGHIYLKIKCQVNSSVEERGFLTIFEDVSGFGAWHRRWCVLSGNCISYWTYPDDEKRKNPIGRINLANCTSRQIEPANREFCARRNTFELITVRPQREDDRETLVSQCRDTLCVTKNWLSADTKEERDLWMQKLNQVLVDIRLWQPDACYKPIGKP
# UniProt Q8IW19: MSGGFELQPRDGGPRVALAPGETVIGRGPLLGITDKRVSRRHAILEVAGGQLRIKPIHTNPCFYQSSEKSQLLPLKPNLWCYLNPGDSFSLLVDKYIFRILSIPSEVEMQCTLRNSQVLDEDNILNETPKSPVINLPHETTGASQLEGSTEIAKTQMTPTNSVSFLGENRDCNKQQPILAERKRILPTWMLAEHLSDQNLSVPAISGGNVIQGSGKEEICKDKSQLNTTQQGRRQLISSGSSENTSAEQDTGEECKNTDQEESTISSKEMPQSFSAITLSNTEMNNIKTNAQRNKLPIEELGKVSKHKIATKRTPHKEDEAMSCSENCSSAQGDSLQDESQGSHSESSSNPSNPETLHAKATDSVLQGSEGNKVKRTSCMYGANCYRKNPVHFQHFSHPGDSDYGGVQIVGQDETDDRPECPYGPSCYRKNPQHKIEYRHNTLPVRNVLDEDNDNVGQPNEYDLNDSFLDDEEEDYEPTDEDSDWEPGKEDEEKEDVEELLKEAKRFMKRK
# UniProt P15144: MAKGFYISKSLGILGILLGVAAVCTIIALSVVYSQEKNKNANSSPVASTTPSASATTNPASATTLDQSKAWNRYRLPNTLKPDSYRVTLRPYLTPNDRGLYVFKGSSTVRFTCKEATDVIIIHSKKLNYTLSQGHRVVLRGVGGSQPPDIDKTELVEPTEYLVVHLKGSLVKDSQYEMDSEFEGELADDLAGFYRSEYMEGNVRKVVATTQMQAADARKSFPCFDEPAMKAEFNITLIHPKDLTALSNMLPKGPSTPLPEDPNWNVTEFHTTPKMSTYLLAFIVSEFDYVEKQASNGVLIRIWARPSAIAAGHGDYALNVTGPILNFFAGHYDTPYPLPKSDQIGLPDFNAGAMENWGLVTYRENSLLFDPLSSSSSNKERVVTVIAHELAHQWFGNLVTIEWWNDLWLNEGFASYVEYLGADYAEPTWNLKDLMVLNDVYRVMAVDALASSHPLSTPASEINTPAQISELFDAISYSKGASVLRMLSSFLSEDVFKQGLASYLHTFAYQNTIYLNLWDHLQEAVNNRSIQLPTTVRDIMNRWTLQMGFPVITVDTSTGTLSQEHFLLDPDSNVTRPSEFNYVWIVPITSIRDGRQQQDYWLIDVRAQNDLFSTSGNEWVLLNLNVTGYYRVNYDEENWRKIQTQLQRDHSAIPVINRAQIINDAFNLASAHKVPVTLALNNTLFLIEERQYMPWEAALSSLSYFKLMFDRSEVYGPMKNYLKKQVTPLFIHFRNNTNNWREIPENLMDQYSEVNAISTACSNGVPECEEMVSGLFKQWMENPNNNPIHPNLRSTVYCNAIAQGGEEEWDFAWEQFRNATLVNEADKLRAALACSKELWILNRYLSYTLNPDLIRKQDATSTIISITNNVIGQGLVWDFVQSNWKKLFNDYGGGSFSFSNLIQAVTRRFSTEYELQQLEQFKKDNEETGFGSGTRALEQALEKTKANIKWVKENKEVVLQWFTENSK
# UniProt P02655: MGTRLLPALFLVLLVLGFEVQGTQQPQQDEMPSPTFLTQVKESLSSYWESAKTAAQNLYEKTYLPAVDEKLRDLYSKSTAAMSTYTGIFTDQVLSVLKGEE
# UniProt Q8IUX4: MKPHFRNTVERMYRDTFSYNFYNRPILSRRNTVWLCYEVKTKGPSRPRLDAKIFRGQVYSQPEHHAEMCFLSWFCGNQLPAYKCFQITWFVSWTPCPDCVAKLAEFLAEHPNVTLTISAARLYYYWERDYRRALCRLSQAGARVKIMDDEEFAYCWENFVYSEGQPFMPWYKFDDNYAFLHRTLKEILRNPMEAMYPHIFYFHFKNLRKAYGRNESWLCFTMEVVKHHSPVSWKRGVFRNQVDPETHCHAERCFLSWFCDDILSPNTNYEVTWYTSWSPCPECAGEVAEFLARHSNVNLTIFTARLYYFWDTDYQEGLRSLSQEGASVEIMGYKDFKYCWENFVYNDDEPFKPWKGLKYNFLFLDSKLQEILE
# The list shows a part of the results.
# Legend:
# Test in all cases: log2 fold change, soluble protein after heating vs DMSO (PISA); higher = thermal stabilisation; K562 cells, 10 uM, 30 min; active = over 0.2 and 3.5 SD of the protein, either way, in both replicates (recomputed)
# [1] = compound: CC1=C(SC2=C1C(=N[C@H](C3=NN=C(N32)C)CC(=O)N)C4=CC=C(C=C4)Cl)C
# Method in brief: (§1)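 K562 cells (2×10^6 cells/mL) were treated with 10 μM compound for 30 min, and aliquots were heated for 3 min over 48°C-58°C. Pooled aliquots were extracted in PBS with 0.5% NP-40 at 4°C, and the supernatant after 21,000xg for 90 min was measured by TMTpro 16plex LC-MS/MS with channel sums equalised. Reported thermal stability, relative to control samples and from duplicates, is a log2 fold change.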
# [2] = compound: CC1=C2C(=CC=C1)N=C(N(C2=O)C3=CC=CC=C3C)CN4C=NC5=C(N=CN=C54)N
# Method in brief: as §1
# [3] = compound: c1ccc([C@@H]2C[C@H]2NC2CCNCC2)cc1
# Method in brief: as §1
# [4] = compound: C1=CC=C(C=C1)[C@H](COC2=CC3=C(C=C2)NC(=O)N3)NC(=O)C4=CC=CN(C4=O)CC5=CC(=C(C=C5)F)F
# Method in brief: as §1
# [5] = compound: Cc1sc2c(c1C)C(c1ccc(Cl)cc1)=N[C@@H](CC(=O)OC(C)(C)C)c1nnc(C)n1-2
# Method in brief: as §1
Target,log2 fold change [1],log2 fold change [2],log2 fold change [3],log2 fold change [4],log2 fold change [5]
APAF1 (UniProt O14727),inactive: 0.031,inactive: 0.112,inactive: 0.055,–,–
ANLN (UniProt Q9NQW6),–,inactive: 0.325,–,inactive: 0.002,–
APLF (UniProt Q8IW19),inactive: 0.035,–,inactive: 0.063,–,–
ANPEP (UniProt P15144),inactive: 0.173,–,inactive: -0.03,–,inactive: 0.12
APOC2 (UniProt P02655),inactive: 0.08,inactive: 0.235,inactive: -0.254,–,–
APOBEC3F (UniProt Q8IUX4),inactive: 0.003,–,inactive: -0.086,inactive: -0.197,–
